HELM strings list residues between dots; [ac] is acetyl, [am] amide, other brackets name non-standard units.
Assay: general procedure: Boc solid-phase peptide synthesis; PAM resin (t-Boc-aminoacyl-OCH2 PAM); DCC/HOBT active esters in NMP; symmetrical anhydrides (DCC) in DMF
Conditions: whole synthesis, trifluoroacetate salts after HPLC, acetate salts after ion exchange; for final HPLC purity: analytical HPLC, Vydac C-4, UV 215 nm; for final HPLC purity / crude yield: scale of the general procedure 0.5 mmol

Substance | final HPLC purity | crude mass (scale 0.5 mmol) [mg] | crude yield [%] | crude mass [mg]
Met-(Mag 1)-(Mag 1) | greater than 97% | 796 | 82 | 
PEPTIDE1{G.M.A.S.K.A.G.A.I.A.G.K.I.A.K.V.A.L.K.A.L}$$$$V2.0 | greater than 98% | 559 | 71 | 
PEPTIDE1{M.G.I.G.K.F.L.R.E.A.G.K.F.G.K.A.F.V.G.E.I.M.K.G.I.G.K.F.L.R.E.A.G.K.F.G.K.A.F.V.G.E.I.M.K.P}$$$$V2.0 | greater than 95% |  | 84 | 562

Source: patent US5519115A (priority 1993, dated 1996)
